Test results published in PubChem BioAssay AID2158 (National Center for Advancing Translational Sciences (NCATS), 2009).
Where “and” joins values, the source holds several entries; their conditions need not be identical. Equal entries are not always repeated. This list was built around the results that the source calls inconclusive (neither active nor inactive); the mix of calls is not that of the screen. A potency beside an inconclusive call is a rough fit, not a confirmed value. Calls of active or inactive are those of the source. The call rests on the fitted dose curve; in most records, active means well fitted inhibition curve with a large enough effect; inconclusive means small, poorly fitted or top-dose-only effect; inactive means no such curve, though single readings can be large or run the other way.

Amino acid sequences for entries named in this document (tags omitted). Residues count along the entry.
UniProt P25779, 123-467 limits assumed: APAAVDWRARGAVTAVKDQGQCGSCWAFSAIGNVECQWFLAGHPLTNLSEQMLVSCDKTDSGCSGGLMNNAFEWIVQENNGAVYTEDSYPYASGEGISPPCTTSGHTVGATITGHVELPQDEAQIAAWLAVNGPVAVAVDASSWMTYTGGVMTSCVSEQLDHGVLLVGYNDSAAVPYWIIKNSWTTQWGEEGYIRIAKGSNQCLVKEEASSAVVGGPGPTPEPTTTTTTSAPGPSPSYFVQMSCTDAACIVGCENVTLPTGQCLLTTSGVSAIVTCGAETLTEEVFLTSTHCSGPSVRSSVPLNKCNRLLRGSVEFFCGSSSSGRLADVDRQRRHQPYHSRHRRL

Each molecule was assayed against Cruzipain (Trypanosoma cruzi) (UniProt P25779) (assay: Confirmation qHTS Assay for Inhibitors of Cruzain). Details: purified cruzain, Z-FR-AMC fluorescence, 0.01% Triton.
How it was run: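 Purified cruzain, 1.5 nM, pre-incubated 15 min at room temperature with compound in 100 mM sodium acetate pH 5.5, 5 mM DTT, 0.01% Triton X-100. Then 2 uM Z-FR-AMC added; AMC fluorescence (ex 360/em 450 nm) increase over 60 s gave reaction progress.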
Further: nearly all actives have a fitted effect of over 40% in size.
Potency means the concentration at half of the fitted maximal effect.
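Wherever activity change, negative = inhibition is given: plate controls were uninhibited enzyme control for no effect and buffer wells lacking enzyme for full effect.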

| Compound | Potency | activity change, negative = inhibition |
| --- | --- | --- |
| CCOC(=O)c1cc2c(=O)n3ccccc3nc2n(Cc2ccco2)c1=NC(=O)c1cccnc1 | inconclusive: 25.1 µM [inhibitor, partial curve] | – |
| FC(F)Sc1ccc(N=C2NN=C(c3ccc4c(c3)OCCO4)CS2)cc1 | – | inactive: -6.33% |
| CCOC(=O)c1sc(N/N=C/c2cccc(C)c2)nc1C | inconclusive: 3.98 µM [inhibitor, full curve] | – |
| Cc1ccc(C(=O)NCC(=O)OCC(=O)c2cccc3ccccc23)cc1 | inconclusive: 15.8 µM [inhibitor, full curve] | – |
| CC(=O)n1cc(/C=C2/N=C(c3ccccc3)OC2=O)c2ccccc21 | active: 0.794 µM | – |
| CCOC(=O)c1ccc(N2CSC3=C(C#N)C(c4cccs4)CC(=O)N3C2)cc1 (configuration not stated) | – | inactive: -9.35% |
| COc1ccc(-c2ccc(-c3nnc(-c4cc(OC)ccc4OC)o3)cc2)cc1 | inconclusive: 39.8 µM [inhibitor, partial curve, poor fit] | – |
| CC(C)(C)OC(=O)N[C@@H](Cc1ccccc1)c1nnc(SCC(=O)O)o1 | inconclusive: 31.6 µM [inhibitor, partial curve] | – |
| O=C(CNC(=O)c1ccccc1)N[C@H](C(=O)Nc1cc(C(F)(F)F)ccc1Cl)c1ccccc1 | inconclusive: 25.1 µM [inhibitor, partial curve] | – |
| O=C(Nc1nc(Nc2cc(F)cc(F)c2)nc(NC2CCCC2)n1)OCc1ccccc1 | inconclusive: 0.0071 µM [inhibitor, full curve, poor fit] | – |
| N#Cc1nc(NCC(F)F)nc(Nc2cc(F)cc(F)c2)n1 | active: 0.0251 µM | – |
| CN(C)c1nc(C#N)nc(N2CCOCC2)n1 | active: 10 µM and active: 8.91 µM | – |
| CCc1ccc(C(=O)COC(=O)CNC(=O)C2CCCCC2)cc1 | active: 7.08 µM | – |
| O=C(Nc1ccccc1)Nc1nc(Nc2cc(F)cc(F)c2)nc(NC2CCCC2)n1 | inconclusive: 1.78 µM [inhibitor, partial curve, poor fit] | – |
| O=C(N[C@@H](Cc1ccccc1)C(=O)CCl)OCc1ccccc1 | active: 0.447 µM | – |
| COc1ccc(C(=O)NCC(=O)OCC(=O)c2cccc3ccccc23)cc1 | inconclusive: 31.6 µM [inhibitor, partial curve] | – |
| O=C(CNC(=O)c1ccc(Cl)c(C(F)(F)F)c1)OC(C(=O)Nc1cc(C(F)(F)F)ccc1Cl)c1ccccc1 (configuration not stated) | inconclusive: 5.62 µM [inhibitor, full curve, poor fit] | – |

Another view of part of the listing above:
Compound	Potency	activity change, negative = inhibition
FC(F)Sc1ccc(N=C2NN=C(c3ccc4c(c3)OCCO4)CS2)cc1	–	inactive: -6.33%
CCOC(=O)c1sc(N/N=C/c2cccc(C)c2)nc1C	inconclusive: 3.98 µM [inhibitor, full curve]	–
